Results are given in words; binding and its absence hold for the method and conditions named. In cells and extracts the contact can be indirect. Here binding means that the protein was enriched with, or labelled near, the bait; the list need not be complete.

By UniProt entry, the sequences of proteins in these tests, tags left out. Where a name states a change or a piece, a line headed by the entry shows the natural chain unless it says otherwise.
UniProt Q09472: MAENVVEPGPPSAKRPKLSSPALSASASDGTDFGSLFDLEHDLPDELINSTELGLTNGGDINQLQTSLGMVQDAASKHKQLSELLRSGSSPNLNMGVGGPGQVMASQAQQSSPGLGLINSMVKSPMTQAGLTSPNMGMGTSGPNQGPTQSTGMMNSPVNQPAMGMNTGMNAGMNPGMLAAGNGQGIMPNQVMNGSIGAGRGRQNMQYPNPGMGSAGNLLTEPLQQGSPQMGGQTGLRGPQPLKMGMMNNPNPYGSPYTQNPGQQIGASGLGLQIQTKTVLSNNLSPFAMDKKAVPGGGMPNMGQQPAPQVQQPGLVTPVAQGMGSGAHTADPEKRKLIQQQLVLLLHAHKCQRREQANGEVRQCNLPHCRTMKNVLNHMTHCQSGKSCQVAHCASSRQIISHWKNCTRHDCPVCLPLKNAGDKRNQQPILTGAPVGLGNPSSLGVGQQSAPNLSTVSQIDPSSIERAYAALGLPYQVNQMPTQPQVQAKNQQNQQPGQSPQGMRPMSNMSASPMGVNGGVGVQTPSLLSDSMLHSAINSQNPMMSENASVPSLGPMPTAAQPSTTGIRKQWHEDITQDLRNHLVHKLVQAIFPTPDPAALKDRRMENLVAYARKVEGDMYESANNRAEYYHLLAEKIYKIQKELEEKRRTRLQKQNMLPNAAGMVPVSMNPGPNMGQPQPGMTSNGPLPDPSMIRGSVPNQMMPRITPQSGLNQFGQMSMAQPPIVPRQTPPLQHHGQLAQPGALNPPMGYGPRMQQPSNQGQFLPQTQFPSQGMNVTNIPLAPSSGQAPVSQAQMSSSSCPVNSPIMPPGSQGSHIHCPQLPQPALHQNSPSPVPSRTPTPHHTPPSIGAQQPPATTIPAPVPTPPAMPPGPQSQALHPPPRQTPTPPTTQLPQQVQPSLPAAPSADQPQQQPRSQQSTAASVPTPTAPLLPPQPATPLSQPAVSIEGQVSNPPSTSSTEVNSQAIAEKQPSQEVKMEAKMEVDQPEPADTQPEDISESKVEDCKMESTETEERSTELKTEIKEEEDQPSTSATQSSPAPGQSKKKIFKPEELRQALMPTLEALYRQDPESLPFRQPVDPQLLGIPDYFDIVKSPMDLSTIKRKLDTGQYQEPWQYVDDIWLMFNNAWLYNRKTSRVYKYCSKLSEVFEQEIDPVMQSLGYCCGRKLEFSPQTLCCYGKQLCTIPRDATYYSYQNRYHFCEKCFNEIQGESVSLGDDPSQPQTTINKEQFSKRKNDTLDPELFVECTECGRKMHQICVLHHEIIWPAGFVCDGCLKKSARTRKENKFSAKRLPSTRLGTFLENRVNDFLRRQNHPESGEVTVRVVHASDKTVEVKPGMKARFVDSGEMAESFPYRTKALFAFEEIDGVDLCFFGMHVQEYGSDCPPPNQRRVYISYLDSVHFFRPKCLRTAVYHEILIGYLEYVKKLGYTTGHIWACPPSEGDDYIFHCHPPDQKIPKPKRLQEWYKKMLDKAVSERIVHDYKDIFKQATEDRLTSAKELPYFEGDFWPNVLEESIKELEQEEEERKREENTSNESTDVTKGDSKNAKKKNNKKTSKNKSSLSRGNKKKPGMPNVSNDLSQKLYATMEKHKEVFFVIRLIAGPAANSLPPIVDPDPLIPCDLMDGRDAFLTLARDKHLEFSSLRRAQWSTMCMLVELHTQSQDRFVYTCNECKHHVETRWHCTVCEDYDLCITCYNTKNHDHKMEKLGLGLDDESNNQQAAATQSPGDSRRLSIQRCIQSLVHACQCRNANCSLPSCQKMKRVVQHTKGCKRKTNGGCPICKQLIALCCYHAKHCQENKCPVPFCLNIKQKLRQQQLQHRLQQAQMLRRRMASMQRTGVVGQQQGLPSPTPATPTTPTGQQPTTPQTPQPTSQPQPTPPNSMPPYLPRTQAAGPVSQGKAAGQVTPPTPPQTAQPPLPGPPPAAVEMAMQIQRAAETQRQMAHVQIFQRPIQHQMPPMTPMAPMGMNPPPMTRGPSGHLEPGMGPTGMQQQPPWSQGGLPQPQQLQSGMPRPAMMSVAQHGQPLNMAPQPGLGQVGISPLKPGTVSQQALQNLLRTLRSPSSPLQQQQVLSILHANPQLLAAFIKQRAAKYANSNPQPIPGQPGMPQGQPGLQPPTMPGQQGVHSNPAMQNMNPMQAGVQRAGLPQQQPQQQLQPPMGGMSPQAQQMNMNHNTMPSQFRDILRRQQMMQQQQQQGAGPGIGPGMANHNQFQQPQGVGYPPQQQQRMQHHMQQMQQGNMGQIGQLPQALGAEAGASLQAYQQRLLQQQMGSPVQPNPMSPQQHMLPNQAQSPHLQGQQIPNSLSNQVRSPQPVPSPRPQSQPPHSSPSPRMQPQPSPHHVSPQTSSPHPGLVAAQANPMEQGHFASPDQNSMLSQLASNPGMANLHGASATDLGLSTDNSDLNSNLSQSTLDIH

The test has as its target p300 (endogenous) (human (endogenous in T47D and MCF7)) (UniProt Q09472). The experiment in a line: affinity purification with mass spectrometry; MCF7 and T47D cell lysates (TNE lysis buffer) purified with anti-p300 antibody or normal IgG overnight at 4 °C; SDS-PAGE, silver staining, bands analysed by LC-MS/MS.

B1: E74-like ETS transcription factor 5 (ELF5), endogenous (protein, UniProt Q9UKW6 1-265)
chain: MPSLPHSHRVMLDSVTHSTFLPNASFCDPLMSWTDLFSNEEYYPAFEHQTACDSYWTSVHPEYWTKRHVWEWLQFCCDQYKLDTNCISFCNFNISGLQLCSMTQEEFVEAAGLCGEYLYFILQNIRTQGYSFFNDAEESKATIKDYADSNCLKTSGIKSQDCHSHSRTSLQSSHLWEFVRDLLLSPEENCGILEWEDREQGIFRVVKSEALAKMWGQRKKNDRMTYEKLSRALRYYYKTGILERVDRRLVYKFGKNAHGWQEDKL
In the case of B1, the binding result was “binds”.
